Assay results taken from publication PMC12040169 (PLOS Biology, 2025).
The other results are listed elsewhere or left out.

Each compound was assayed on T1, CTL2-GFP (C. trachomatis L2/434/Bu, GFP-expressing). Conditions: bulk GFP, single well; 28.5 h, 10 µM; inhibitor.
T1 construct: L2/434/Bu, GFP-expressing
Parameters: species or system HeLa; Intracellular C. trachomatis growth in HeLa cells, bulk GFP fluorescence relative to DMSO
In the case of `O=C(C(CO)c1ccccc1)N1CCC2(CCN(CCCCOc3ccccc3)C2)C1` (stereo not shown) [CBK161722], the “% of control remaining” value is reported as 127.602%. In the case of `O=C(CN1CCN(CCCc2c[nH]c3ccc(F)cc23)CC1)N(c1ccccc1)C1CCCCC1` [CBK074710], the “% of control remaining” value is reported as 154.964%. With `O=C(NC[C@H]1O[C@@H](CC(=O)N2CCN(c3ccc(F)cc3)CC2)[C@H](O)[C@@H]1O)C1CC1` [CBK288921] the “% of control remaining” value was 128.692%. `Cc1nc2cc(C(=O)N3CCC(c4ccncc4)CC3)ccc2s1` [CBK283513] was tested, and the “% of control remaining” value was 87.308%. For `Cc1ccc(SC(C)C(=O)O/N=C(\N)c2ccccn2)cc1` (stereo not shown) [CBK268567], the “% of control remaining” value was 88.8629%. `N#Cc1ccccc1COC(=O)c1cc(-c2ccc(/C=C/c3nc(O)c([N+](=O)[O-])c(=O)[nH]3)o2)ccc1Cl` [CBK269115] was tested, and the “% of control remaining” value was 118.294%. `COC(=O)c1cscc1NC(=O)c1cnc(-c2ccc(Cl)cc2)c(-c2ccco2)c1` [CBK036657] was tested, and the “% of control remaining” value was 128.619%. In the case of `OC[C@H]1CCCN1c1nc(Br)cn2ccnc12` [CBK085496], the “% of control remaining” value is reported as 127.841%. With `Cc1cc(C)nc(-n2ncc(C#N)c2N)n1` [CBK270227] the “% of control remaining” value was 147.249%. With `CSc1nnc(NS(=O)(=O)c2ccccc2C)s1` [CBK144918] the “% of control remaining” value was 97.6179%. In the case of `O/N=C1\CSCc2ncccc21` [CBK007234], the “% of control remaining” value is reported as 150.044%. In the case of `COCCNc1nc2c(c(N3CCCC(C#N)C3)n1)CCNCC2` (stereo not shown) [CBK307412], the “% of control remaining” value is reported as 127.032%. In the case of `COc1ccc(CNc2ccc(N3CCOCC3)c(C(=O)O)c2)c(OC)c1` [CBK269860], the “% of control remaining” value is reported as 118.994%. In the case of `COc1ccc(-n2c(S)nnc2-c2cccs2)cc1` [CBK266832], the “% of control remaining” value is reported as 103.001%. `O=C(O)c1cccc(NS(=O)(=O)c2cccc([N+](=O)[O-])c2)c1` [CBK155711] was tested, and the “% of control remaining” value was 121.486%. With `Cc1cc2occ(CC(=O)NCc3cc(C4CC4)[nH]n3)c2cc1C` [CBK282576] the “% of control remaining” value was 131.108%. For `O=C(O)C(Cc1ccccc1)C(C(=O)O)c1ccccc1` (stereo not shown) [CBK286578], the “% of control remaining” value was 106.732%. `O=C(Nc1ccc2oc(-c3cccnc3)nc2c1)c1cccc(-c2cc3ccccc3oc2=O)c1` [CBK268612] was tested, and the “% of control remaining” value was 138.387%. With `CS(=O)(=O)Nc1ccc(-c2ccsc2)c2ccccc12` [CBK083742] the “% of control remaining” value was 99.8272%. `Cc1ccccc1C(NC(=O)C1CCN(S(=O)(=O)C(C)C)CC1)c1ccccn1` (stereo not shown) [CBK059711] was tested, and the “% of control remaining” value was 158.534%. With `O=C(O)CCC(CCC(=O)O)([N+](=O)[O-])[N+](=O)[O-]` [CBK260956] the “% of control remaining” value was 115.666%. `Fc1ccc(-c2ccc(Nc3cccnc3)nc2)cc1Cl` [CBK037642] was tested, and the “% of control remaining” value was 133.168%. In the case of `CCOC(=O)CC1SC(NS(=O)(=O)c2ccc(Br)cc2)=NC1=O` (stereo not shown) [CBK014126], the “% of control remaining” value is reported as 90.0496%. For `Cc1ccc2cc(S(=O)(=O)NCCC(=O)O)ccc2c1` [CBK267569], the “% of control remaining” value was 137.665%. With `Cc1cc(C)n(-c2nc3ccccc3nc2N2CCN(S(=O)(=O)c3ccccc3)CC2)n1` [CBK269399] the “% of control remaining” value was 157.68%. In the case of `COc1ccc(CNc2nc(-c3ccc(C)cc3)nn2C(=O)c2cccc([N+](=O)[O-])c2)cc1` [CBK268546], the “% of control remaining” value is reported as 88.7329%. For `O=C(C1CCCCC1)N1CC(n2nc(-c3cccs3)ccc2=O)C1` [CBK283346], the “% of control remaining” value was 103.092%. In the case of `O=C(CCS(=O)(=O)Cc1ccccc1)n1nnc2ccccc21` [CBK268324], the “% of control remaining” value is reported as 99.9508%. With `CN1CCN(C)C(COc2cccc(C(F)(F)F)n2)C1` (stereo not shown) [CBK113292] the “% of control remaining” value was 115.12%. In the case of `O=C(CN1C(=O)S/C(=C\c2ccc(OCc3ccccc3F)cc2)C1=O)c1ccc(Cl)cc1` [CBK264632], the “% of control remaining” value is reported as 110.991%. In the case of `COCCN1C(=O)C2(CC(=O)N(CCCN3C(=O)CCC3=O)C2=O)c2ccccc21` (stereo not shown) [CBK075333], the “% of control remaining” value is reported as 78.279%. With `COc1ccc(CN2CCC(C(=O)NC(c3ccc(OC)nc3)c3ccccc3C)CC2)cc1` (stereo not shown) [CBK081445T] the “% of control remaining” value was 110.037%. `CCNC(=O)N1CC2(CCN(CC(N)=O)CC2)c2ccccc21` [CBK126701] was tested, and the “% of control remaining” value was 125.935%. For `CC(C)(C)c1ccc(NC(=O)N2CCCN(Cc3ccccc3)CC2)cc1` [CBK085876], the “% of control remaining” value was 93.8481%. With `Cc1ccc(-n2cc(CN(C)CC3(C)COC3)cn2)cc1` [CBK281720] the “% of control remaining” value was 128.441%. In the case of `O=C(O)CCCC(=O)N1N=C(c2cccs2)CC1c1cn(-c2ccccc2)nc1-c1ccccc1` (stereo not shown) [CBK296124], the “% of control remaining” value is reported as 162.589%. For `O=C(O)c1cn(CCN2C(=O)c3ccccc3C2=O)nn1` [CBK286543], the “% of control remaining” value was 101.556%. `Cc1csc(NC(=O)c2ncoc2-c2cccs2)n1` [CBK283972] was tested, and the “% of control remaining” value was 127.339%. `CCN(CC)C(=O)C1CCCN(C(=O)NCc2cc(OC)c(OC)c(OC)c2)C1` (stereo not shown) [CBK156130] was tested, and the “% of control remaining” value was 119.61%. With `Cc1ccccc1C1(O)CCN(CC(O)c2ccc3c(c2)OCCCO3)CC1` (stereo not shown) [CBK286332] the “% of control remaining” value was 103.647%. With `O=C(Nc1ccc(N2CCCCC2)c2ccncc12)c1cccc(-n2cnnn2)c1` [CBK297754] the “% of control remaining” value was 132.753%. With `CCn1c(CN2CCC(c3cc(O)nc(N)n3)C2)nc2c(F)cccc21` (stereo not shown) [CBK304189] the “% of control remaining” value was 117.794%. For `COc1ccc(/C=C(/C(=O)NCc2ccc(Cl)cc2Cl)c2ccccc2)cc1` [CBK265256], the “% of control remaining” value was 113.187%. `CS(=O)(=O)c1ccc(-c2cnc3[nH]c(=O)n(-c4ccc5[nH]ccc5c4)c3n2)cc1` [CBK064691] was tested, and the “% of control remaining” value was 116.374%. For `Cc1nc(NS(=O)(=O)Cc2ccccc2[N+](=O)[O-])sc1C(=O)O` [CBK045564], the “% of control remaining” value was 130.189%. For `Oc1cccc(-c2nccnc2NCc2cccc(C(F)(F)F)c2)c1` [CBK037014], the “% of control remaining” value was 110.166%. In the case of `Nc1cccc(Sc2ncccn2)c1` [CBK085844], the “% of control remaining” value is reported as 97.8824%. With `O=C(O)C1CCN(C(=O)NCCOc2ccccc2)CC1` [CBK156072] the “% of control remaining” value was 108.1%. For `O=c1cc(CN2CCC(Cc3ccccc3)CC2)[nH]c(=O)[nH]1` [CBK126388], the “% of control remaining” value was 106.626%.
